{
  "source": "paper PMC4245983",
  "proteins": {"B1": {"name": "HscA386 (Escherichia coli K-12) (protein)", "chain": "MALLQISEPGLSAAPHQRRLAAGIDLGTTNSLVATVRSGQAETLADHEGRHLLPSVVHYQQQGHSVGYDARTNAALDTANTISSVKRLMGRSLADIQQRYPHLPYQFQASENGLPMIETAAGLLNPVRVSADILKALAARATEALAGELDGVVITVPAYFDDAQRQGTKDAARLAGLHVLRLLNEPTAAAIAYGLDSGQEGVIAVYDLGGGTFDISILRLSRGVFEVLATGGDSALGGDDFDHLLADYIREQAGIPDRSDNRVQRELLDAAIAAKIALSDADSVTVNVAGWQGEISREQFNELIAPLVKRTLLACRRALKDAGVEADEVLEVVMVGGSTRVPLVRERVGEFFGRPPLTSIDPDKVVAIGAAIQADILVGNKPDSEM"}},
  "substrate": "Nc1ncnc2c1ncn2[C@@H]1O[C@H](COP(=O)(O)OP(=O)(O)OP(=O)(O)O)[C@@H](O)[C@H]1O",
  "experiment": "Steady-state ATPase assay with the enzyme-coupled EnzChek phosphate kit",
  "format": "biochemical",
  "settings": "pH 7.3; 25.0 °C",
  "data": [
    {"protein": "B1", "values": [
      {"measurement": "Km", "value": 21.4, "unit": "µM"}
    ]}
  ]
}
